These are yes or no findings as the source states them, for the method shown. For some assays here: Binding seen in cells or lysates may run through a third protein. Some entries that bind do so weakly or less than the wild type. Blank lines part the entries; values can stand above or below the substance they belong to.
Assays:
BioPure recombinant Aβ42 = BioPure recombinant Aβ42 (UniProt P05067); test: pull-down of whole brain synaptosome proteins (B6 WT or SYP -/- KO) on Aβ42 coupled to AminoLink resin, western blot [A]
[1] = target: Mouse VAMP2 (endogenous, from brain synaptosomes or cultured neurons) (mouse) (UniProt P63044); test: anti-VAMP2 immunoprecipitation from SYP -/- mouse whole brain synaptosomes, western blot
[2] = target: Mouse VAMP2 (endogenous, from brain synaptosomes or cultured neurons) (mouse) (UniProt P63044); test: immunoprecipitation with anti-VAMP2 antibody from SYP -/- whole brain synaptosomes, western blot
[3] = target: Mouse synaptophysin (endogenous, from brain synaptosomes or cultured neurons) (mouse) (UniProt Q62277); test: co-immunoprecipitation with anti-Syp antibody from murine hippocampal neurons, immunoblot for Syp and Syb, with or without 50 nM Aβ(1-42) overnight
[4] = target: Mouse synaptophysin (endogenous, from brain synaptosomes or cultured neurons) (mouse) (UniProt Q62277); test: co-immunoprecipitation of SYP from cortical neurons treated with Aβ42 or scrambled peptide, immunoblot for VAMP2, densitometry [E]

Amino acid sequences for entries named in this document (tags omitted). Residues count along the entry.
UniProt P05067, residues 672-713: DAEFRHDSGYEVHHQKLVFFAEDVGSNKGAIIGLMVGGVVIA
UniProt P63044, residues 2-116: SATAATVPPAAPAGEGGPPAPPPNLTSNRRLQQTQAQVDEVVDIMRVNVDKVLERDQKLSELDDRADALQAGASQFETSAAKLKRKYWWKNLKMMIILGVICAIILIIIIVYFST
UniProt Q62277: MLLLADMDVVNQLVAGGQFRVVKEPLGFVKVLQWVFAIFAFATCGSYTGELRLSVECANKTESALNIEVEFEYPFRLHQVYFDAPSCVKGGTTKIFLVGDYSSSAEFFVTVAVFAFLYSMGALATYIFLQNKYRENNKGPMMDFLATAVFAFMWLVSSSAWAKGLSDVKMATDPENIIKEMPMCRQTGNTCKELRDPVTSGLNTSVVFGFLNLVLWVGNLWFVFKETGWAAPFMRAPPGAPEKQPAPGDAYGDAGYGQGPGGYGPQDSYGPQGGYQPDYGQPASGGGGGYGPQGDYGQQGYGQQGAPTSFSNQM
UniProt Q8BGN8: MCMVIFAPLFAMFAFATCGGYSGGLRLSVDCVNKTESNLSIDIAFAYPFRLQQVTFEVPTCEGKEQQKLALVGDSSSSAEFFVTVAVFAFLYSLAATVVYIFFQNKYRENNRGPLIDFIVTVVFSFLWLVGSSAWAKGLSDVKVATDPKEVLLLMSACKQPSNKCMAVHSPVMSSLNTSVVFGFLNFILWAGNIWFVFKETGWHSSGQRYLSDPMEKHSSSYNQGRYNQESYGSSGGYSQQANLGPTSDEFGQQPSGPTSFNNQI

binding (BioPure recombinant Aβ42): binds
Substance: Mouse synaptophysin (endogenous, from brain synaptosomes or cultured neurons) (from UniProt Q62277 1-314)

binding [1]: binds
binding [2]: binds
Substance: Mouse synaptoporin (endogenous, from brain synaptosomes) (from UniProt Q8BGN8 1-265)

binding [3]: binds
binding [4]: binds
Substance: Mouse VAMP2 (endogenous, from brain synaptosomes or cultured neurons) (from UniProt P63044 2-116)

From patent US20170183388A1
